Test results as given in the supplement of paper PMC8728848.
Some of the results follow.

What was measured:
Assay in all cases: glycan array binding signal (z-score within array); higher = stronger binding
Settings in all cases: glycan notation: IUPAC condensed, linker removed
[1] = target: Fuc(a1-3)[Gal(b1-4)]GlcNAc(b1-3)Gal(b1-4)[Fuc(a1-3)]GlcNAc
Outline: (§1)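 From the Consortium for Functional Glycomics database, 3228 arrays were curated, keeping only those whose protein sequence was available. Binding is given as a within-array Z-score averaged across arrays sharing a protein sequence and across linkers. Negative Z-scores can be read as non-binding.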

[2] = target: Fuc(a1-3)[Gal(b1-4)]GlcNAc(b1-3)Gal(b1-4)[Fuc(a1-3)]GlcNAc(b1-3)Gal(b1-4)[Fuc(a1-3)]GlcNAc
Outline: as §1

[3] = target: Fuc(a1-3)[Gal(b1-4)]GlcNAc(b1-3)GalNAc
Outline: as §1

[4] = target: Fuc(a1-3)[Gal(b1-4)]GlcNAc(b1-6)GalNAc
Outline: as §1

[5] = target: Fuc(a1-3)[Gal(b1-4)]GlcNAc(b1-6)[Gal(b1-3)GlcNAc(b1-3)]Gal(b1-4)Glc
Outline: as §1

[6] = target: Fuc(a1-3)[Gal(b1-4)]GlcNAc6S
Outline: as §1

[7] = target: Fuc(a1-3)[Gal3S(b1-4)]Glc
Outline: as §1

[8] = target: Fuc(a1-3)[Gal3S(b1-4)]GlcNAc
Outline: as §1

[9] = target: Fuc(a1-3)[Gal3S(b1-4)]GlcNAc6S
Outline: as §1

[10] = target: Fuc(a1-3)[GalNAc(b1-4)]GlcNAc
Outline: as §1

[11] = target: Fuc(a1-3)[GalNAc(b1-4)]GlcNAc6S
Outline: as §1

Fuc(a1-4)GlcNAc = target: Fuc(a1-4)GlcNAc
Outline: as §1

Fuc(b1-3)GlcNAc = target: Fuc(b1-3)GlcNAc
Outline: as §1

Gal(a1-2)Gal = target: Gal(a1-2)Gal
Outline: as §1

Gal(a1-3)Gal = target: Gal(a1-3)Gal
Outline: as §1

Gal(a1-3)Gal(b1-3)GlcNAc = target: Gal(a1-3)Gal(b1-3)GlcNAc
Outline: as §1

[12] = target: Gal(a1-3)Gal(b1-3)GlcNAc(b1-2)Man
Outline: as §1

[13] = target: Gal(a1-3)Gal(b1-3)GlcNAc(b1-2)Man(a1-3)[Gal(a1-3)Gal(b1-3)GlcNAc(b1-2)Man(a1-6)]Man(b1-4)GlcNAc(b1-4)GlcNAc
Outline: as §1

[14] = target: Gal(a1-3)Gal(b1-3)GlcNAc(b1-3)GalNAc
Outline: as §1

[15] = target: Gal(a1-3)Gal(b1-3)GlcNAc(b1-6)GalNAc
Outline: as §1

[16] = target: Gal(a1-3)Gal(b1-3)[Fuc(a1-4)]GlcNAc(b1-2)Man(a1-3)[Gal(a1-3)Gal(b1-3)[Fuc(a1-4)]GlcNAc(b1-2)Man(a1-6)]Man(b1-4)GlcNAc(b1-4)GlcNAc
Outline: as §1

Gal(a1-3)Gal(b1-4)Glc = target: Gal(a1-3)Gal(b1-4)Glc
Outline: as §1

Gal(a1-3)Gal(b1-4)GlcNAc = target: Gal(a1-3)Gal(b1-4)GlcNAc
Outline: as §1

[17] = target: Gal(a1-3)Gal(b1-4)GlcNAc(b1-2)Man
Outline: as §1

[18] = target: Gal(a1-3)Gal(b1-4)GlcNAc(b1-2)Man(a1-3)[Gal(a1-3)Gal(b1-4)GlcNAc(b1-2)Man(a1-6)]Man(b1-4)GlcNAc(b1-4)GlcNAc
Outline: as §1

[19] = target: Gal(a1-3)Gal(b1-4)GlcNAc(b1-3)GalNAc
Outline: as §1

[20] = target: Gal(a1-3)Gal(b1-4)GlcNAc(b1-6)GalNAc
Outline: as §1

[21] = target: Gal(a1-3)Gal(b1-4)[Fuc(a1-3)]GlcNAc
Outline: as §1

[22] = target: Gal(a1-3)Gal(b1-4)[Fuc(a1-3)]GlcNAc(b1-2)Man(a1-3)[Gal(a1-3)Gal(b1-4)[Fuc(a1-3)]GlcNAc(b1-2)Man(a1-6)]Man(b1-4)GlcNAc(b1-4)GlcNAc
Outline: as §1

Gal(a1-3)GalNAc = target: Gal(a1-3)GalNAc
Outline: as §1

[23] = target: Gal(a1-3)[Gal(a1-4)]Gal(b1-4)GlcNAc
Outline: as §1

[24] = target: Gal(a1-4)Gal(b1-3)GlcNAc(b1-2)Man(a1-3)[Gal(a1-4)Gal(b1-3)GlcNAc(b1-2)Man(a1-6)]Man(b1-4)GlcNAc(b1-4)GlcNAc
Outline: as §1

Gal(a1-4)Gal(b1-4)Glc = target: Gal(a1-4)Gal(b1-4)Glc
Outline: as §1

Gal(a1-4)Gal(b1-4)GlcNAc = target: Gal(a1-4)Gal(b1-4)GlcNAc
Outline: as §1

[25] = target: Gal(a1-4)Gal(b1-4)GlcNAc(b1-2)Man(a1-3)[Gal(a1-4)Gal(b1-4)GlcNAc(b1-2)Man(a1-6)]Man(b1-4)GlcNAc(b1-4)GlcNAc
Outline: as §1

[26] = target: Gal(a1-4)Gal(b1-4)GlcNAc(b1-3)Gal(b1-4)Glc
Outline: as §1

Gal(a1-4)GlcNAc = target: Gal(a1-4)GlcNAc
Outline: as §1

Gal(a1-6)Glc = target: Gal(a1-6)Glc
Outline: as §1

B1: PX9961W-pdi-543-27-543 (Parabacteroides distasonis) (protein)
chain: EGNATTTSYFLNDQQAIDAIDGLYERFHQEGCYGRELFWEQGAACDIVWGRTRGYNSLATLAYTGDESPLRDVFSRMYSTMSRANWIIQELVKKEKGTTLTAVEKRSLGEAYFSRGWAHYLIAYRYGTDKQGVPFVRYEDFPDDYDNSIPPQQATVMDNYKLIIEDMDKAIAYLPIFESYDADNRGRAHQAAAVAFKAKTYAYWATWDATQWNNVIEMVNQLENNYNRDLAPTFAELFSSDLKDYWNAEYLWTIPSIGGALPGGTEFPGIILENKGWGKYNGWGQMKPSYDIYEEMAKDGKGNDRLVRSILEYNQEFPFFGETRKFWSTSDLEAGFMINKYMDAFKYSDPVGEGAVSANGDWPTVRVNFPIIRFAEMLLFRAEAYLMTGQADKATADINRIRLRSNLTPLTGTATMKDLYHERRCELAFEFTDHLFDLKRWNRSSNADIKTLADKELNAHPRIRRYEDRANPESAFTIIGYEDYTNKNAYQAHMMVFPYPSEEITKSNGQLKQNEGY
glycan array binding signal (z-score) [1]: 1.22 | glycan array binding signal (z-score) [2]: -0.133 | glycan array binding signal (z-score) [3]: -0.28 | glycan array binding signal (z-score) [4]: 0.447 | glycan array binding signal (z-score) [5]: -0.969 | glycan array binding signal (z-score) [6]: 0.019 | glycan array binding signal (z-score) [7]: -0.215 | glycan array binding signal (z-score) [8]: -0.507 | glycan array binding signal (z-score) [9]: -0.934 | glycan array binding signal (z-score) [10]: -0.877 | glycan array binding signal (z-score) [11]: 0.762 | glycan array binding signal (z-score) (Fuc(a1-4)GlcNAc): -0.806 | glycan array binding signal (z-score) (Fuc(b1-3)GlcNAc): -0.123 | glycan array binding signal (z-score) (Gal(a1-2)Gal): 0.391 | glycan array binding signal (z-score) (Gal(a1-3)Gal): -0.512 | glycan array binding signal (z-score) (Gal(a1-3)Gal(b1-3)GlcNAc): -0.356 | glycan array binding signal (z-score) [12]: 0.221 | glycan array binding signal (z-score) [13]: 1.2 | glycan array binding signal (z-score) [14]: -0.115 | glycan array binding signal (z-score) [15]: -0.936 | glycan array binding signal (z-score) [16]: -0.208 | glycan array binding signal (z-score) (Gal(a1-3)Gal(b1-4)Glc): -0.166 | glycan array binding signal (z-score) (Gal(a1-3)Gal(b1-4)GlcNAc): -0.055 | glycan array binding signal (z-score) [17]: -0.868 | glycan array binding signal (z-score) [18]: 0.389 | glycan array binding signal (z-score) [19]: -0.184 | glycan array binding signal (z-score) [20]: 0.486 | glycan array binding signal (z-score) [21]: -0.49 | glycan array binding signal (z-score) [22]: 1.51 | glycan array binding signal (z-score) (Gal(a1-3)GalNAc): 0.176 | glycan array binding signal (z-score) [23]: 4.9 | glycan array binding signal (z-score) [24]: -0.69 | glycan array binding signal (z-score) (Gal(a1-4)Gal(b1-4)Glc): -1.26 | glycan array binding signal (z-score) (Gal(a1-4)Gal(b1-4)GlcNAc): -0.299 | glycan array binding signal (z-score) [25]: -0.19 | glycan array binding signal (z-score) [26]: -0.322 | glycan array binding signal (z-score) (Gal(a1-4)GlcNAc): -0.436 | glycan array binding signal (z-score) (Gal(a1-6)Glc): -1.09
